# Source: the supplement of paper PMC11732987, “Enantioselective OTUD7B fragment discovery through chemoproteomics screening and high-throughput optimisation” (Communications Chemistry, 2025)
# By UniProt entry, the sequences of proteins in these tests, tags left out. Where a name states a change or a piece, a line headed by the entry shows the natural chain unless it says otherwise.
# UniProt Q8IX18: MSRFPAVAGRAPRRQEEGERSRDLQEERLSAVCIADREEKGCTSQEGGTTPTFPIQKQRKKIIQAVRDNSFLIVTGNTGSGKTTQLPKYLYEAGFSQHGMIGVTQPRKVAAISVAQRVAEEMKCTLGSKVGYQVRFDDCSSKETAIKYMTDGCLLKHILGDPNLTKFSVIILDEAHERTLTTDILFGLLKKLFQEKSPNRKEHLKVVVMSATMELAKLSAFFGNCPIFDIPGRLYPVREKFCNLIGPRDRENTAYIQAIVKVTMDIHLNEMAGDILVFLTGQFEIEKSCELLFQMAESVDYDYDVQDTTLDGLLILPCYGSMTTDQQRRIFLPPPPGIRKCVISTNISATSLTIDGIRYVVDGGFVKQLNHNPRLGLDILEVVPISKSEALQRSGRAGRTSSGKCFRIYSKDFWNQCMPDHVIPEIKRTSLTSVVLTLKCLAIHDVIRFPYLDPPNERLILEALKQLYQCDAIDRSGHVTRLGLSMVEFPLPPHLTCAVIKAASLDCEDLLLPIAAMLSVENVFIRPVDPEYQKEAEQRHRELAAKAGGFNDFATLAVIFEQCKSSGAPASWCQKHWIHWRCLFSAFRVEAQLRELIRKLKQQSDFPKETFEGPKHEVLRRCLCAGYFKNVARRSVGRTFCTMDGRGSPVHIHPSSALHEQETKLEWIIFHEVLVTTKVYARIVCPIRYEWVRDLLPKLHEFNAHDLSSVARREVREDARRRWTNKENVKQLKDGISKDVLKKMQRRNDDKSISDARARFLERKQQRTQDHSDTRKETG
# UniProt Q9Y2L1: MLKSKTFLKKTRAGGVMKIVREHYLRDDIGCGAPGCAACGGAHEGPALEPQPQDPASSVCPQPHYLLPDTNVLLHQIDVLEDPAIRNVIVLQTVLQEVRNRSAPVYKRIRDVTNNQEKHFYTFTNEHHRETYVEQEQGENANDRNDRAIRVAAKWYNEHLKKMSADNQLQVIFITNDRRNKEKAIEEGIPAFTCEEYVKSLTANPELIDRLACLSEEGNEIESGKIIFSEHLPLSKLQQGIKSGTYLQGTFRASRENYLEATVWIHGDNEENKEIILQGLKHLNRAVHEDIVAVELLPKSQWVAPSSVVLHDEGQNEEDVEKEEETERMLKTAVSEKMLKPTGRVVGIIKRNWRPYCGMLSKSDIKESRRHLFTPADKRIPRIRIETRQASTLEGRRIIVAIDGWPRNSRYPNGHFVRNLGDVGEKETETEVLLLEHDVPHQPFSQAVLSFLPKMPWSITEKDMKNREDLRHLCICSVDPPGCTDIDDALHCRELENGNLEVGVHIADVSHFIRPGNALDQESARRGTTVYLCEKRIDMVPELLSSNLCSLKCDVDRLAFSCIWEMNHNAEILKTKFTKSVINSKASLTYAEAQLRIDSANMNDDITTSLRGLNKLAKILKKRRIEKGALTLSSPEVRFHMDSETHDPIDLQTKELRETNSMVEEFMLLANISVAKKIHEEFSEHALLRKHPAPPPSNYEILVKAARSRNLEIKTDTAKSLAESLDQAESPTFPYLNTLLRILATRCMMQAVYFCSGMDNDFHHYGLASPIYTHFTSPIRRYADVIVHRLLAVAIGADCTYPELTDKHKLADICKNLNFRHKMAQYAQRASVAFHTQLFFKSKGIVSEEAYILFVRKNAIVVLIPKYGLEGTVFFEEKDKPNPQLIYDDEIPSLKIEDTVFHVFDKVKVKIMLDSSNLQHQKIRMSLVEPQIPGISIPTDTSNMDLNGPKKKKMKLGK
# UniProt P26358: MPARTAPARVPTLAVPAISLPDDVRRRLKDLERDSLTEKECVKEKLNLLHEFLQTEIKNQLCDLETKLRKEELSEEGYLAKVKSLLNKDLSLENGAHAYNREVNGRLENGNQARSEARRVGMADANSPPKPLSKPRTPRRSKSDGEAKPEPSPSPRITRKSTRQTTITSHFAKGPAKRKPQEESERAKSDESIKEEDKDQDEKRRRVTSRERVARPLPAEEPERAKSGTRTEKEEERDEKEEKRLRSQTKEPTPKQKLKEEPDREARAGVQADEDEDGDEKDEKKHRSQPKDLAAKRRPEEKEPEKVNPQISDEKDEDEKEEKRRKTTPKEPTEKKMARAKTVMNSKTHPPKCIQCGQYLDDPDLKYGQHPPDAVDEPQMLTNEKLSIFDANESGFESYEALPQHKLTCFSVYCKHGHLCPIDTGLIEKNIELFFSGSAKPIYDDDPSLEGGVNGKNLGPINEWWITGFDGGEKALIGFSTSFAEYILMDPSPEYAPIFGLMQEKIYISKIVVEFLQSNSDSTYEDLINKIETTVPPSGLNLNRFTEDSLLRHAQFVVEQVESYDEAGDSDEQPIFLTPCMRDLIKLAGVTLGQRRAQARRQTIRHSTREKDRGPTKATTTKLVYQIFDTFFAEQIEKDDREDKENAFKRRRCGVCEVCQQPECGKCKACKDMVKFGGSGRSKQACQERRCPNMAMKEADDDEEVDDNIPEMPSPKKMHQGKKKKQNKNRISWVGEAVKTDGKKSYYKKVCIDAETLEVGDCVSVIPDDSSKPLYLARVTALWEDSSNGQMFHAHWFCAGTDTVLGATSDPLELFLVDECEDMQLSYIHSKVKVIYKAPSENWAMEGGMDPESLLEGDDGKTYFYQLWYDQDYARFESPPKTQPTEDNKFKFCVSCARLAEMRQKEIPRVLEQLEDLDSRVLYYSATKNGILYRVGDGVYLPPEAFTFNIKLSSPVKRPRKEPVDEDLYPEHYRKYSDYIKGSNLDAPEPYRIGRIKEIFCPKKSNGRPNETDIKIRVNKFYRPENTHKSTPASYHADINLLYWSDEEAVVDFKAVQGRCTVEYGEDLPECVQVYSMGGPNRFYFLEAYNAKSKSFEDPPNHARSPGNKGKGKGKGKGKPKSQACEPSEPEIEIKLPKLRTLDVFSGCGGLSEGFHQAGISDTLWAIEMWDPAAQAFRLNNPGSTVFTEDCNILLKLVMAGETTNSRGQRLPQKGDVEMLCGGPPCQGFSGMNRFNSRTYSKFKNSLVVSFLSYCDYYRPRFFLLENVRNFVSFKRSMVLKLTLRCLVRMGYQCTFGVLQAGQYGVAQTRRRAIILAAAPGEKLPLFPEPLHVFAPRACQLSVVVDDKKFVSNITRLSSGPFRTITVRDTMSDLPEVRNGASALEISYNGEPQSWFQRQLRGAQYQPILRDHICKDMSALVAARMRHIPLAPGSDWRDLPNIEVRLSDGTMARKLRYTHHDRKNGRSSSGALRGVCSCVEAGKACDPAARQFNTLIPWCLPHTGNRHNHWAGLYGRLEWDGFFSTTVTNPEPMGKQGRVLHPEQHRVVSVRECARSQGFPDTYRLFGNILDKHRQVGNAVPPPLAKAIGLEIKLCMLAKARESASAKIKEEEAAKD
# UniProt Q9UKB3: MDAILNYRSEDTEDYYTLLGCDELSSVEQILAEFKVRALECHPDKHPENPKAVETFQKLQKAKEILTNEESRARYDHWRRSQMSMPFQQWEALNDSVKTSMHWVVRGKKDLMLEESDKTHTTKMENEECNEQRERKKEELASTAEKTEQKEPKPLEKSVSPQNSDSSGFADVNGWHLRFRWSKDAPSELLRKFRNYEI
# UniProt Q8TDJ6, whole entry, looked up: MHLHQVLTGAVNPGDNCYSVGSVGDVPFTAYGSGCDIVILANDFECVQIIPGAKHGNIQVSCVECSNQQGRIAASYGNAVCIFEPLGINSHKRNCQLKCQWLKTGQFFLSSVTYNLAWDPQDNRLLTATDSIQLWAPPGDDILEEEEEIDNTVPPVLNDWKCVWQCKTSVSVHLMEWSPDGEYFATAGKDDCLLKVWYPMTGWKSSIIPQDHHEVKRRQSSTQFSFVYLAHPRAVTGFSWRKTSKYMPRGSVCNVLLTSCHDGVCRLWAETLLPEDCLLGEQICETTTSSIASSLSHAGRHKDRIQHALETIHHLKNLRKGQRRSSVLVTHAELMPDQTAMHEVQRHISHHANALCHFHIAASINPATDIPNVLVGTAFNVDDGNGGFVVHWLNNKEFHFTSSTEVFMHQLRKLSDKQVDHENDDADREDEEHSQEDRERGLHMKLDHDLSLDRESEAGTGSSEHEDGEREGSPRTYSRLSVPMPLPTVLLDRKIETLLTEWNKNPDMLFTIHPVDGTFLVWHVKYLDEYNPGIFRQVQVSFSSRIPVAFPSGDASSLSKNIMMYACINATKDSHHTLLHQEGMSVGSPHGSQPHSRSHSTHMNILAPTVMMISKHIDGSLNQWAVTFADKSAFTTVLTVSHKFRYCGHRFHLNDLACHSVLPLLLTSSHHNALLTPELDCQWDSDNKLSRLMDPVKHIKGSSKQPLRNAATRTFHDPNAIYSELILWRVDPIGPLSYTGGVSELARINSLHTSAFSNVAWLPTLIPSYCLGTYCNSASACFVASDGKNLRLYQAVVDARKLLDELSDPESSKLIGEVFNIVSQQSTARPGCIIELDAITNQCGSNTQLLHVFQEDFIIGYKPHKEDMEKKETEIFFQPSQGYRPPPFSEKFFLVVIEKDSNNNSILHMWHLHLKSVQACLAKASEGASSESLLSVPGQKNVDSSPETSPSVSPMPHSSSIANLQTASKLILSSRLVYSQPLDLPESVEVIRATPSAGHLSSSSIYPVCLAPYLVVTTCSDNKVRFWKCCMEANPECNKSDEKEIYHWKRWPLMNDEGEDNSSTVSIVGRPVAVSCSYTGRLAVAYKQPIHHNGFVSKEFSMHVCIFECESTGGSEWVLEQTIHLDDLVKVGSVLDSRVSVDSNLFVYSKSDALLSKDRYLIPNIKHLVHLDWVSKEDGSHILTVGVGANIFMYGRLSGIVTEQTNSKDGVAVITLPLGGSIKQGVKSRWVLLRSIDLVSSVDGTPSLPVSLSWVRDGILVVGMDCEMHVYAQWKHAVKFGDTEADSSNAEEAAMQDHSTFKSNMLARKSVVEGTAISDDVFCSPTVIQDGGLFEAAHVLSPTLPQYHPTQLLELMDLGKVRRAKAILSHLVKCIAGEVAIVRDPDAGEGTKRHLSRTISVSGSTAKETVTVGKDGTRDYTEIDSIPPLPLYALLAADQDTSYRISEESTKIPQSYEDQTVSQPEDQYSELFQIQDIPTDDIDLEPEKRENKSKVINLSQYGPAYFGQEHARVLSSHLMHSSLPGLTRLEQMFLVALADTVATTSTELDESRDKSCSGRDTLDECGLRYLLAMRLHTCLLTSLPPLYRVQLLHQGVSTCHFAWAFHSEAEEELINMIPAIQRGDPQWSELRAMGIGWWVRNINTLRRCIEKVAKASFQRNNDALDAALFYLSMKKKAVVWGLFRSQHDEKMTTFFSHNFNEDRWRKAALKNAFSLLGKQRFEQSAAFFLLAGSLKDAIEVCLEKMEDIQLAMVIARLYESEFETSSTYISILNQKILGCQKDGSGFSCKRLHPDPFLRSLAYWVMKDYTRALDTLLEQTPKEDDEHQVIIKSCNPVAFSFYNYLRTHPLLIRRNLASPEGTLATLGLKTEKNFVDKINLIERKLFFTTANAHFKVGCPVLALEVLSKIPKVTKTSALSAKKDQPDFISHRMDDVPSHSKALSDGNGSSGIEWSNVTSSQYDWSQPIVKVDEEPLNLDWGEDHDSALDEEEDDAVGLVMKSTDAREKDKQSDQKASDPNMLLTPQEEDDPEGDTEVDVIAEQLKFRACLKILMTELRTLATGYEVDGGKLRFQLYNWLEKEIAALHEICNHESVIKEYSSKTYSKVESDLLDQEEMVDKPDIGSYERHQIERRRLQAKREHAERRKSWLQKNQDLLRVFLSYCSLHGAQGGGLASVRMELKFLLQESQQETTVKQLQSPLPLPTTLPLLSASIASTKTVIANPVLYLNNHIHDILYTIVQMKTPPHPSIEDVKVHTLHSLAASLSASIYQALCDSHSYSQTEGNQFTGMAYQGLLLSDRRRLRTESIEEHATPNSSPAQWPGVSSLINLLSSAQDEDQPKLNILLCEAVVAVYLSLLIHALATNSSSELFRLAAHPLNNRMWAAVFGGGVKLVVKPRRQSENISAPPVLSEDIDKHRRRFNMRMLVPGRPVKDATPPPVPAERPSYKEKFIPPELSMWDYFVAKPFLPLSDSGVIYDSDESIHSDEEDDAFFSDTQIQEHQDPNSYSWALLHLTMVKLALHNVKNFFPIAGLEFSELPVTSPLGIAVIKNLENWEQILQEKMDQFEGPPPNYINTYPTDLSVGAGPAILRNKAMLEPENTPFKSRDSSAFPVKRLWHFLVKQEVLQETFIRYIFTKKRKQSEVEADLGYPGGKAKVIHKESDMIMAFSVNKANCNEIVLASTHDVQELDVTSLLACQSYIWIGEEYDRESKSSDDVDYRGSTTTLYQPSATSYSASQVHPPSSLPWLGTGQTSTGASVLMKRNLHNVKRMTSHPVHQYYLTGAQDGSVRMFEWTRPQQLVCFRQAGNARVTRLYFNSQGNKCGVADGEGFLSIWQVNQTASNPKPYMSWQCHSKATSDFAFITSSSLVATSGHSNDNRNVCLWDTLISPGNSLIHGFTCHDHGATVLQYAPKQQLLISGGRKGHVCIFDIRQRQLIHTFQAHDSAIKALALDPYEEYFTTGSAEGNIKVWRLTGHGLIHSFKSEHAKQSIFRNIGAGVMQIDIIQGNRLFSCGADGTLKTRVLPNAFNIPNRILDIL
# The list shows a part of the results. The data scatter; read single values as rough.
# Compound: ClCC(=O)N[C@H]1CCCc2ccccc12
# Assay: log2 mean competition ratio of IA-DTB cysteine labelling (DMSO/compound) (log2 ratio); higher = stronger cysteine engagement by compound
# Settings: 50 µM; treatment time: 4 h; cell line lysate: HEK293T
# Description: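 IA-DTB competitive cysteine chemoproteomics in HEK293T RIPA lysate. Lysates were treated with compound 29 or 30 at 50 or 200 µM for 4 h, then IA-DTB (500 µM, 1 h), trypsin-digested, NeutrAvidin-enriched and analysed by diaPASEF. Competition ratio = intensity DMSO / intensity compound (n=4 treated, n=64 DMSO); binding: mean log2 CR ≥ 1 and p ≤ 0.05 plus QC filters. Target is the cysteine site.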
row,Target,log2 mean competition ratio
1,DHX16 C37 (UniProt O60231),-0.176
2,DHX29 C659 (UniProt Q7Z478),0.492
3,DNAJC13 C884 (UniProt O75165),-0.125
4,DOHH C200 (UniProt Q9BU89),0.175
5,DNPH1 C117,-0.833
6,DGKD C121,0.191
7,DOCK11 C492,0.168
8,DIPK1A C347 (UniProt Q5T7M9),-0.291
9,DHCR24 C499 (UniProt Q15392),-0.0331
10,DFFA C21 (UniProt O00273),0.579
11,DIAPH2 C484 (UniProt O60879),-0.409
12,DHX40 C42 (UniProt Q8IX18),0.788
13,DOCK11 C903,-0.206
14,DHCR7 C380 (UniProt Q9UBM7),0.0253
15,DIS3 C213 (UniProt Q9Y2L1),0.171
16,DNMT1 C1485 (UniProt P26358),0.0595
17,DNAJC12 C41 (UniProt Q9UKB3),-0.0589
18,DNMT1 C1191 (UniProt P26358),-0.389
19,DMXL2 C1788 (UniProt Q8TDJ6),-0.172
20,DHX57 C598 (UniProt Q6P158),-0.245

# Same assay, conditions: 200 µM; treatment time: 4 h; cell line lysate: HEK293T
row,Target,log2 mean competition ratio
1,DHX16 C37 (UniProt O60231),0.0184
2,DHX29 C659 (UniProt Q7Z478),0.0525
3,DNAJC13 C884 (UniProt O75165),-0.0782
4,DOHH C200 (UniProt Q9BU89),-0.36
5,DNPH1 C117,0.222
6,DGKD C121,0.159
7,DOCK11 C492,0.0137
8,DIPK1A C347 (UniProt Q5T7M9),0.28
9,DHCR24 C499 (UniProt Q15392),0.166
10,DFFA C21 (UniProt O00273),-0.265
11,DIAPH2 C484 (UniProt O60879),0.208
12,DHX40 C42 (UniProt Q8IX18),-0.179
13,DOCK11 C903,-0.163
14,DHCR7 C380 (UniProt Q9UBM7),-0.156
15,DIS3 C213 (UniProt Q9Y2L1),-0.233
16,DNMT1 C1485 (UniProt P26358),-0.00769
17,DNAJC12 C41 (UniProt Q9UKB3),-0.256
18,DNMT1 C1191 (UniProt P26358),-0.364
19,DMXL2 C1788 (UniProt Q8TDJ6),0.309
20,DHX57 C598 (UniProt Q6P158),0.0255
